# Data reported in the supplement of paper PMC9744312.
# Structures can show the parent of a compound that is named as a salt. The list shows a part of the results. The data scatter; read single values as rough.
# System: Peyronie's disease tunica albuginea primary fibroblasts
# Experiment: cell viability (DRAQ5 nuclear stain) relative to TGF-beta1-only control; higher = more viable cells
# Conditions: 10 µM; TGF-beta1 10 ng/mL; 72 h
row,SMILES,cell viability
1,COc1c(C)c2c(c(O)c1C/C=C(\C)CCC(=O)O)C(=O)OC2 [Mycophenolic acid],59.3%
2,Cc1onc(-c2c(F)cccc2Cl)c1C(=O)N[C@@H]1C(=O)N2[C@@H]1SC(C)(C)[C@@H]2C(=O)O [Flucloxacillin sodium],98.6%
3,C[C@H](Cc1cc2c(c(C(N)=O)c1)N(CCCO)CC2)NCCOc1ccccc1OCC(F)(F)F [Silodosin],69.8%
4,CCCC(CCC)C(=O)O[C@H]1C[C@H]2CC[C@@H](C1)[N+]2(C)C [Anisotropine Methylbromide],103%
5,O=C(NCCN1CCOCC1)c1ccc(Cl)cc1,90.2%
6,CN1C(=O)OC(C)(C)C1=O [Trimethadione],90.6%
7,CC(=O)CCCCn1c(=O)c2c(ncn2C)n(C)c1=O [Pentoxifylline],85.4%
8,Nc1c(CC(=O)O)cccc1C(=O)c1ccc(Br)cc1 [Bromfenac Sodium],82.5%
9,CC(C)(C)c1nc(-c2cccc(NS(=O)(=O)c3c(F)cccc3F)c2F)c(-c2ccnc(N)n2)s1 [Dabrafenib Mesylate],127%
10,CC(C)(C)c1nc(-c2cccc(NS(=O)(=O)c3c(F)cccc3F)c2F)c(-c2ccnc(N)n2)s1,136%
11,C[C@H]1O[C@@H](n2cc(F)c(=O)[nH]c2=O)[C@H](O)[C@@H]1O [Doxifluridine],84.7%
12,CCOC(=O)[C@H](CCc1ccccc1)N[C@@H](C)C(=O)N(CC(=O)O)C1Cc2ccccc2C1 [Delapril Hydrochloride],97.5%
13,C[C@H](Cn1cnc2c(N)ncnc21)OCP(=O)(O)O [Tenofovir],96.3%
14,CCCCNc1cc(C(=O)O)cc(S(N)(=O)=O)c1Oc1ccccc1 [Bumetanide],89.8%
15,Cn1cc(C(=O)[C@@H]2CCc3[nH]cnc3C2)c2ccccc21 [Ramosetron Hydrochloride],91%
16,CC(C)(C)c1ccc(C(=O)CCCN2CCC(OC(c3ccccc3)c3ccccc3)CC2)cc1 [Ebastine],101%
17,O=c1ccn([C@@H]2O[C@H](CO)[C@@H](O)[C@H]2O)c(=O)[nH]1 [Uridine],97.3%
18,[O-][n+]1cccc(CO)c1 [Mepiroxol],99.3%
19,COc1ccc(C[C@H](N)C(=O)N[C@H]2[C@@H](O)[C@H](n3cnc4c(N(C)C)ncnc43)O[C@@H]2CO)cc1 [Puromycin 2HCl],23.4%
20,Cc1ccnc(NS(=O)(=O)c2ccc(N)cc2)n1 [Sulfamerazine],96.1%
21,CCC[S+]([O-])c1ccc2[nH]c(NC(=O)OC)nc2c1 (stereo unspecified) [Albendazole Oxide],81.8%
22,NC(=O)OCC(COC(N)=O)c1ccccc1 [Felbamate],86.3%

# Exported with tabs: entries from further up
row	SMILES	cell viability
16	CC(C)(C)c1ccc(C(=O)CCCN2CCC(OC(c3ccccc3)c3ccccc3)CC2)cc1 [Ebastine]	101%
17	O=c1ccn([C@@H]2O[C@H](CO)[C@@H](O)[C@H]2O)c(=O)[nH]1 [Uridine]	97.3%

# More records follow.

row,SMILES,cell viability
1,COC(=O)N[C@H](C(=O)N[C@@H](Cc1ccccc1)[C@@H](O)CN(Cc1ccc(-c2ccccn2)cc1)NC(=O)[C@@H](NC(=O)OC)C(C)(C)C)C(C)(C)C [Atazanavir],92.1%
2,COC(=O)N[C@H](C(=O)N[C@@H](Cc1ccccc1)[C@@H](O)CN(Cc1ccc(-c2ccccn2)cc1)NC(=O)[C@@H](NC(=O)OC)C(C)(C)C)C(C)(C)C [Atazanavir Sulfate],94.8%
3,N.N.O=C([O-])C[O-].[Pt+2] [Nedaplatin],82.4%
4,NCCCC(O)(P(=O)(O)O)P(=O)(O)O [Alendronate sodium trihydrate],97.1%
5,CNC[C@H](O)[C@@H](O)[C@H](O)[C@H](O)CO [Meglumine],97.1%
6,CN(C)CCn1nnnc1SCC1=C(C(=O)O)N2C(=O)[C@@H](NC(=O)Cc3csc(N)n3)[C@H]2SC1 [Cefotiam hydrochloride],103%
7,COc1cc(C2Oc3cc([C@H]4Oc5cc(O)cc(O)c5C(=O)[C@@H]4O)ccc3OC2CO)ccc1O (stereo partly specified) [Silibinin],85.4%
8,C[C@]1(c2nc3c(C(N)=O)cccc3[nH]2)CCCN1 [Veliparib (ABT-888)],92.6%
9,CC(=O)N[C@@H](CS)C(=O)O [Acetylcysteine],87%
10,CC(=O)O[C@H]1C[C@@]2(C)[C@@H](C[C@@H](O)[C@H]3[C@@]4(C)CC[C@@H](O)[C@@H](C)[C@@H]4CC[C@@]32C)/C1=C(\CCC=C(C)C)C(=O)O [Fusidate Sodium],90.4%
11,C[C@@H](c1nc(-c2ccc(C#N)cc2)cs1)[C@](O)(Cn1cncn1)c1cc(F)ccc1F [Isavuconazole],89.4%
12,CCN(CC)CCOC(=O)c1ccc(N)cc1 [Procaine HCl],86.1%
13,CCN(CC)CCOC(=O)c1ccc(N)cc1 [Procaine],86.4%
14,CC[C@H](C)C(=O)O[C@H]1C[C@@H](C)C=C2C=C[C@H](C)[C@H](CC[C@@H]3C[C@@H](O)CC(=O)O3)[C@H]21 [Lovastatin],71.1%
15,Clc1ccc(C(Cn2ccnc2)OCc2ccc(Sc3ccccc3)cc2)c(Cl)c1 (stereo unspecified) [Fenticonazole Nitrate],89.1%
16,O=c1sn(-c2cccc3ccccc23)c(=O)n1Cc1ccccc1 [Tideglusib],90.4%
17,CN1CC(O)C2=C/C(=N/NC(N)=O)C(=O)C=C21 (stereo unspecified) [Carbazochrome],94.1%
18,Nc1c2c(nc3ccccc13)CCCC2 [Tacrine HCl],84.3%
19,CCCCC(CC)COC(=O)C(C#N)=C(c1ccccc1)c1ccccc1 (stereo unspecified) [Octocrylene],91.8%
20,CCN(CC)C(=S)SSC(=S)N(CC)CC [Disulfiram],92.9%
21,COc1cc2/c(=N/c3ccc(Br)cc3F)nc[nH]c2cc1OCC1CCN(C)CC1 [Vandetanib (ZD6474)],92.3%
22,CC1(C)O[C@@H]2C[C@H]3[C@@H]4CCC5=CC(=O)C=C[C@]5(C)[C@H]4[C@@H](O)C[C@]3(C)[C@]2(C(=O)CO)O1 [Desonide],64.9%

row,SMILES,cell viability
1,O=C(O)c1ccc2c(c1)nc(Nc1cccc(Cl)c1)c1ccncc12 [Silmitasertib (CX-4945)],101%
2,"O=C(CCCCCCC(=O)Nc1ccccc1)NO [Vorinostat (SAHA, MK0683)]",69.4%
3,CC[C@H]1OC(=O)C[C@@H](O)[C@H](C)[C@@H](O[C@@H]2O[C@H](C)[C@@H](O[C@H]3C[C@@](C)(O)[C@@H](O)[C@H](C)O3)[C@H](N(C)C)[C@H]2O)[C@@H](CC=O)C[C@@H](C)C(=O)/C=C/C(C)=C/[C@@H]1CO[C@@H]1O[C@H](C)[C@@H](O)[C@@H](OC)[C@H]1OC [Tylosin tartrate],92.1%
4,NC[C@H]1O[C@H](O[C@H]2[C@H](O)[C@@H](O[C@H]3O[C@H](CO)[C@@H](O)[C@H](N)[C@H]3O)[C@H](N)C[C@@H]2N)[C@H](O)[C@@H](O)[C@@H]1O [Kanamycin sulfate],96.8%
5,C[C@H](Oc1ccc(S(C)(=O)=O)cc1C(=O)N1CCN(c2ncc(C(F)(F)F)cc2F)CC1)C(F)(F)F [Bitopertin],87%
6,COC(=O)N[C@H](C(=O)N1CCC[C@H]1c1nc(-c2ccc3c(c2)O[C@@H](c2ccccc2)n2c-3cc3cc(-c4c[nH]c([C@@H]5CCCN5C(=O)[C@@H](NC(=O)OC)C(C)C)n4)ccc32)c[nH]1)C(C)C [Elbasvir],100%
7,CCNC(=O)CCC/C=C\C[C@@H]1[C@@H](/C=C/[C@@H](O)CCc2ccccc2)[C@H](O)C[C@@H]1O [Bimatoprost],89%
8,COC(=O)C1=C(C)NC(C)=C(C(=O)OC2CCCN(Cc3ccccc3)C2)C1c1cccc([N+](=O)[O-])c1 (stereo unspecified) [Benidipine HCl],86.7%
9,CN[C@H]1C(=O)N[C@@H]2Cc3ccc(cc3)Oc3cc4cc(c3O[C@@H]3O[C@H](C(=O)O)[C@@H](O)[C@H](O)[C@H]3NC(=O)CCCCCCCCC(C)C)Oc3ccc(cc3Cl)[C@@H](O)[C@@H]3NC(=O)[C@H](NC(=O)[C@@H]4NC(=O)[C@@H](NC2=O)c2cc(cc(O)c2Cl)Oc2cc1ccc2O)c1ccc(O)c(c1)-c1c(O[C@H]2O[C@H](CO)[C@@H](O)[C@H](O)[C@@H]2O)cc(O)cc1[C@@H](C(=O)NCCCN(C)C)NC3=O [Dalbavancin],90.5%
10,CC1(C)S[C@@H]2[C@H](NC(=O)[C@H](C(=O)O)c3ccsc3)C(=O)N2[C@H]1C(=O)O [Ticarcillin sodium],87.8%
11,CN[C@@H]1[C@@H](O)[C@@H](O[C@@H]2[C@@H](O)[C@H](O[C@H]3OC(CN)=CC[C@H]3N)[C@@H](N)C[C@H]2N)OC[C@]1(C)O [Sisomicin sulfate],59.9%
12,CC(C)OC(=O)CCC/C=C\C[C@@H]1[C@@H](/C=C/[C@@H](O)COc2cccc(C(F)(F)F)c2)[C@H](O)C[C@@H]1O [Travoprost],85.3%
13,O=C1CN(/N=C/c2ccc(-c3ccc([N+](=O)[O-])cc3)o2)C(=O)N1 [Dantrolene sodium],88.8%
14,O=C1CN(/N=C/c2ccc(-c3ccc([N+](=O)[O-])cc3)o2)C(=O)N1 [Dantrolene sodium hemiheptahydrate],99.3%
15,CC1(O)CCC(C(C)(C)O)CC1 (stereo unspecified) [Terpin hydrate],83.2%
16,CCOC(=O)n1ccn(C)c1=S [Carbimazole],85.7%
17,C[C@H](N)[C@H](O)c1cccc(O)c1 [Metaraminol Bitartrate],99.8%
18,CC1(C)S[C@@H]2[C@H](NC(=O)C(C(=O)O)c3ccccc3)C(=O)N2[C@H]1C(=O)O (stereo partly specified) [Carbenicillin disodium],98.4%
19,CC(C)(C)C(=O)C(Oc1ccc(Cl)cc1)n1ccnc1 (stereo unspecified) [Climbazole],37.2%
20,Cc1ccccc1OCC(O)CO (stereo unspecified) [Mephenesin],88%
21,Cl.NCCCC[C@H](N)C(=O)O [L-Lysine hydrochloride],92.4%
22,COC(=O)N[C@H](C(=O)N1CCC[C@H]1c1ncc(-c2ccc(-c3ccc(-c4cnc([C@@H]5CCCN5C(=O)[C@@H](NC(=O)OC)C(C)C)[nH]4)cc3)cc2)[nH]1)C(C)C,93%
